In PubChem BioAssay AID540276 (National Center for Advancing Translational Sciences (NCATS), 2011):
Hit rate of the full screen: of about 300,000 compounds, about 5,400 (1.8%) were called active. This list was built around the results that the source calls inconclusive (neither active nor inactive); the mix of calls is not that of the screen. Calls come from the whole dose curve; tested in HEK293 cells. Potencies of inconclusive entries are doubtful fits and often do not repeat.

test: qHTS for inhibitors of binding or entry into cells for Marburg Virus; details: Marburg virus pseudotyped entry inhibition, cell reporter; activity change, negative = inhibition: at 37.8 µM (top of the series) unless noted
% is set by controls: 0 for no effect and ±100 for the full control effect; potency is the fitted concentration of half-maximal effect.

Compound	Potency	activity change, negative = inhibition
Cc1ccc(NC(=O)Nc2cc(C(F)(F)F)c[nH]c2=O)cc1	inconclusive: 17.8 µM [inhibitor, partial curve, poor fit]	–
COc1ccc(CCNc2nc(-c3ccc(OC)c(OC)c3)cc(C(F)(F)F)n2)cc1OC	inconclusive: 3.98 µM [inhibitor, single point]	–
Cc1cccc(NC(=O)c2ccc(CN3CCc4ccccc4C3)cc2)c1C	inconclusive: 35.5 µM [inhibitor, partial curve, poor fit]	–
Fc1ccc(N2CCN(C3=Nc4cccc5cccc3c45)CC2)cc1	inconclusive: 22.4 µM [inhibitor, single point]	–
Cc1cc(C(F)(F)F)nn1CC(=O)N(C)c1ccccc1	–	inactive: -12.2% [at 46.1 µM]
Cc1cccc(N2CCN(C(=O)CCNS(=O)(=O)c3ccc4c(c3)CCC(=O)N4)CC2)c1C	inconclusive: 16.4 µM [inhibitor, partial curve, poor fit]	–
CCn1cc(C(=O)NCCCN2CCCC(C)C2)c(=O)c2cc(S(=O)(=O)N(C)C3CCCCC3)ccc21 (stereo not drawn)	–	inactive: 4.4% [at 46.1 µM]
Cc1ccccc1CCN(C(=O)Cn1nnc2ccccc21)C(C(=O)NCC1CCCO1)c1nc2ccccc2n1C (stereo not drawn)	inconclusive: 1.26 µM [activator, single point]	–
CC(C)Cn1c(=O)c2ccccc2n2c(SCC(=O)N3c4ccccc4CC3C)nnc12 (stereo not drawn)	inconclusive: 7.94 µM [activator, partial curve]	–
Cc1ccc(/C=C2/SC(=Nc3ccc(F)cc3)NC2=O)s1	–	inactive: 0.0386% [at 46.1 µM]
CC(C)(C)c1cc(=O)n(-c2ccccc2)[nH]1	inconclusive: 11.2 µM [inhibitor, partial curve, poor fit]	–
O=C(Nc1ccc2c(c1)OCO2)c1noc2c1CCCC2	active: 7.08 µM	–
Cc1[nH]n(-c2cccc3ccccc23)c(=O)c1C=Nc1ccc2[nH]c(=O)[nH]c2c1	inconclusive: 6.31 µM [activator, single point]	–
Cc1ccc(S(=O)(=O)N2CCCCC2)cc1C(=O)OCC(=O)NC(=O)NC12CC3CC(CC(C3)C1)C2	inconclusive: 6.31 µM [activator, partial curve, poor fit]	–
COc1ccc(C2CCCN2C(=S)Nc2ccccc2C)cc1OC (stereo not drawn)	inconclusive: 0.562 µM [inhibitor, full curve, poor fit]	–
O=C(Nc1cccc(S(=O)(=O)NC2=NCCCCC2)c1)c1cc(-c2ccco2)nc2ccccc12	–	inactive: -18.6%
Cc1ccc(N(CC(=O)NC2CCCC2)C(=O)CCC(=O)Nc2nccs2)c(C)c1	inconclusive: 3.16 µM [inhibitor, single point]	–
CC1CC(CCN)(c2ccccc2)C(C)CN1C (stereo not drawn)	active: 3.98 µM	–
CCCCNCCOCCOc1ccc(C)cc1Br	inconclusive: 10 µM [inhibitor, partial curve, poor fit]	–
Cc1onc(-c2ccccc2)c1C(=O)OCCOc1ccc([N+](=O)[O-])cc1[N+](=O)[O-]	inconclusive: 7.08 µM [inhibitor, partial curve, poor fit]	–
CCOc1ccc(-c2cn(CCC#N)cn2)cc1	inconclusive: 29.1 µM [activator, single point]	–
Cc1c(C(=O)N(Cc2nccn2C)C(C)C)oc2c(F)cccc12	inconclusive: 8.91 µM [activator, partial curve, poor fit]	–

Molecules from the list above that have an aryl methoxy group:
Compound	Potency	activity change, negative = inhibition
COc1ccc(CCNc2nc(-c3ccc(OC)c(OC)c3)cc(C(F)(F)F)n2)cc1OC	inconclusive: 3.98 µM [inhibitor, single point]	–
COc1ccc(C2CCCN2C(=S)Nc2ccccc2C)cc1OC (stereo not drawn)	inconclusive: 0.562 µM [inhibitor, full curve, poor fit]	–

Later entries:

Compound	Potency	activity change, negative = inhibition
Cc1ccc(Sc2ncccc2C(=O)O)c(C)c1	–	inactive: 11.6%
COc1ccc(NC(C)C(=O)N/N=C/c2c(O)ccc3ccccc23)cc1 (stereo not drawn)	inconclusive: 35.5 µM [inhibitor, single point]	–
COc1cccc(C2C(=O)c3ccccc3C2=O)c1	–	inactive: 12.5%
Cc1cc(C)c(NC(=O)CNC(=O)c2ccccc2OCc2c(C)noc2C)c(C)c1	inconclusive: 15.8 µM [inhibitor, partial curve, poor fit]	–
CCOC(=O)c1c(C)[nH]c(C(=O)OCC(=O)Nc2ccc(Cl)cn2)c1C	–	inactive: 0.784%
Cc1noc(C)c1N=Nc1ccccc1C(=O)O	inconclusive: 11.2 µM [activator, partial curve, poor fit]	–
CCN(CC)Cc1c(O)ccc2cc(-c3nc4ccccc4n3C)c(=O)oc12	–	inactive: -6.64%
O=C(c1ccc2c(c1)N(Cc1ccc(F)cc1)C(=O)c1ccccc1S2=O)N1CCC(Cc2ccccc2)CC1 (stereo not drawn)	inconclusive: 20 µM [inhibitor, partial curve, poor fit]	–
CCOc1ccc(-n2nnc3c(=O)n(CC(=O)NCc4ccco4)cnc32)cc1	–	inactive: -3.69% [at 46.1 µM]
O=C(CCCc1ccccc1)Nc1cccnc1	inconclusive: 15.8 µM [activator, single point]	–
O=[N+]([O-])c1ccc(N/N=C\c2cccn2-c2ccccc2)nc1	inconclusive: 35.5 µM [inhibitor, single point]	–
O=C(Cc1ccc(S(=O)(=O)N2CCOCC2)s1)NC1CCCCC1	inconclusive: 7.94 µM [activator, partial curve, poor fit]	–
Cc1ccc(S(=O)(=O)Nc2ccc(C(=O)N3CCN(c4ccccc4O)CC3)cc2)cc1[N+](=O)[O-]	–	inactive: 17.3%
CCC(C)N=CC1=C(O)C(C(=O)OC)C(C)(C)CC1=O (stereo not drawn)	inconclusive: 1 µM [activator, full curve]	–
COc1ccc(-n2cc(-c3ccccc3)c3c(NN4CCOCC4)ncnc32)cc1	inconclusive: 35.5 µM [inhibitor, single point]	–
O=C(Cn1ncc2ccc(Cl)cc21)NCc1ccc(F)cc1	–	inactive: 3.16% [at 46.1 µM]
CC(C(=O)c1ccccc1)[n+]1cccc(C(N)=O)c1 (stereo not drawn)	–	inactive: 5.44% [at 46.1 µM]
CCOc1ccc(OCc2ccc(C(=O)O)o2)cc1	inconclusive: 7.94 µM [inhibitor, partial curve, poor fit]	–
CCNc1nc(NC(C)C)nc(N(C#N)CCOc2ccc(Cl)cc2Cl)n1	inactive	–
CSc1cccc(Nc2nc3c(S(=O)(=O)c4ccccc4)nnn3c3ccc(Cl)cc23)c1	–	inactive: 1.77% [at 46.1 µM]
COc1ccc(NS(=O)(=O)c2cccc(NC(=O)CCS(=O)(=O)c3ccccc3)c2)cc1	inconclusive: 7.94 µM [inhibitor, partial curve, poor fit]	–
